Test results from article PMC4381061.
Results are given in words; binding and its absence hold for the method and conditions named. Binding seen in cells or lysates may run through a third protein. Some results given as binding are weak or reduced against the parent protein; the word gives no strength.

Protein sequences, listed by entry. Tags and fused reporters are not part of them.
UniProt P12004: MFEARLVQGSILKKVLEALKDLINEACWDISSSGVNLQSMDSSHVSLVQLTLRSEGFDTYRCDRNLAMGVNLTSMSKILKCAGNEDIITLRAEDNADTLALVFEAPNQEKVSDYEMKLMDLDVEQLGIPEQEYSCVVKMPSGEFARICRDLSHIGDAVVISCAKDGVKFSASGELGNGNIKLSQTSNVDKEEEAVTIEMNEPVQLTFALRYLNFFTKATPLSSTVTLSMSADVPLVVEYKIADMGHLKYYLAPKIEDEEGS
UniProt Q460N5: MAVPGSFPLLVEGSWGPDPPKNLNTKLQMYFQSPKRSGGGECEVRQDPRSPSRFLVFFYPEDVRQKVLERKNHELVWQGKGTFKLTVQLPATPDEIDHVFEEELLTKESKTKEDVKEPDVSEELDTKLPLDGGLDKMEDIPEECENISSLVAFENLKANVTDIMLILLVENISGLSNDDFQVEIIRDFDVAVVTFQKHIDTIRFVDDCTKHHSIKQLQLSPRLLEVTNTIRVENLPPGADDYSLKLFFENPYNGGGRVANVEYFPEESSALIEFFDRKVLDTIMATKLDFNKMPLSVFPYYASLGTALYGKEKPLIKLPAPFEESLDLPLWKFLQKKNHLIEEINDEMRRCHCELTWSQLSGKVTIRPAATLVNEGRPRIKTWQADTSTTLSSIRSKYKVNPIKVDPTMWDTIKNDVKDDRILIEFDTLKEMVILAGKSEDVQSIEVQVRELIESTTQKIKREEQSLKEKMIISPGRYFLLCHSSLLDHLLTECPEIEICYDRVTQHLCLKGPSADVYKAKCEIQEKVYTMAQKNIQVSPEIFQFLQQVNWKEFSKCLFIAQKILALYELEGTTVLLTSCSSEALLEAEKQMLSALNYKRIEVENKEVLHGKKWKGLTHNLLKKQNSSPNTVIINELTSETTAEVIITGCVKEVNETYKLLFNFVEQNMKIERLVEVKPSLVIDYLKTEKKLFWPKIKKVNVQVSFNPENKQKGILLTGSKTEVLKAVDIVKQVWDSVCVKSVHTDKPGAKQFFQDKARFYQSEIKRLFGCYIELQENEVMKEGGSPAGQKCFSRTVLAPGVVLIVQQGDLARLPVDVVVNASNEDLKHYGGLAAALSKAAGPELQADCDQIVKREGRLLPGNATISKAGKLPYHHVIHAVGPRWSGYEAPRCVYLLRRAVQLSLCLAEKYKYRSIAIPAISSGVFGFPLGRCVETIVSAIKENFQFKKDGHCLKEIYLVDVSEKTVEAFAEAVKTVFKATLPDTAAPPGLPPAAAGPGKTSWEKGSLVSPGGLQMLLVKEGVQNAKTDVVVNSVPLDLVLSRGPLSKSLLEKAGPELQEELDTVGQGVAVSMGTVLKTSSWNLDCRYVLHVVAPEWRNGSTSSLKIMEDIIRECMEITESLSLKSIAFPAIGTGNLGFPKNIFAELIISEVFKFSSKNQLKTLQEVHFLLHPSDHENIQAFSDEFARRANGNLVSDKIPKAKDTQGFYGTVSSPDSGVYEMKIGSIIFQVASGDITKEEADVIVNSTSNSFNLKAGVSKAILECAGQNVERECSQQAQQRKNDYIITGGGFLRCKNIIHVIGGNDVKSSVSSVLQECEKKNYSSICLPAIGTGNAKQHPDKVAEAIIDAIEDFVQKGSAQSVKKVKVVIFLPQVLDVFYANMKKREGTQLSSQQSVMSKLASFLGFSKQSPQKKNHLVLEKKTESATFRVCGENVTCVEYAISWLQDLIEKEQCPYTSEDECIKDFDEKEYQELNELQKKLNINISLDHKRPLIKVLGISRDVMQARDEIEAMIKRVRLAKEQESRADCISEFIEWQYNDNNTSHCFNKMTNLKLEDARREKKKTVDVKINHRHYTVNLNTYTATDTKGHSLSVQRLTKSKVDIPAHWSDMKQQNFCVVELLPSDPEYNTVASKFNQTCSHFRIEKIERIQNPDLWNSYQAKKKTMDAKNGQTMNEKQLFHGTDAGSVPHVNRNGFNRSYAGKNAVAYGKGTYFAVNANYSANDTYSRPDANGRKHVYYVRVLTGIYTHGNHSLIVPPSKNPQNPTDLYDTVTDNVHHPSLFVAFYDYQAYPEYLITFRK

Assays:
[1] = target: PCNA (human (endogenous in 8988T and HeLa)) (UniProt P12004); experiment: co-IP; endogenous proteins from HeLa cells (Supplementary Figure S1); addition of benzonase does not reduce the interaction (Supplementary Figure S1C)
[2] = target: PCNA (human (endogenous in 8988T and HeLa)) (UniProt P12004); experiment: co-IP; PCNA immunoprecipitation of endogenous proteins from 8988T cells; also from cells arrested in S-phase (2.5-mM thymidine 18 h, 2 h recovery) or in G2/M (100-ng/ml nocodazole 18 h); PARP14 co-precipitated preferentially in S-phase and much less in G2/M
[3] = target: recombinant GST-tagged PCNA (UniProt P12004); experiment: pull-down; recombinant GST-tagged PCNA with native extracts of HeLa cells (Supplementary Figure S2); only the target purified

Measured: binding

PARP14 (mono-ADP-ribosyltransferase PARP14/ARTD8) (from UniProt Q460N5 1-1801)
binds: all assays above
